Assay results taken from PubChem BioAssay (EPA / NIEHS).
The shares of active, inactive and inconclusive entries below differ from those in the screen. For part of these data: Potencies beside an inconclusive call are fits to weak or partial responses and may not hold up. Calls of active or inactive are those of the source. How the source made its calls: active means hit-call score of the fitted dose curve at least 0.9, where 1 is the maximum; inconclusive means response in the unintended direction; inactive means score below 0.9.

By UniProt entry, the sequences of proteins in these tests, tags left out. Where a name states a change or a piece, a line headed by the entry shows the natural chain unless it says otherwise.
UniProt P10828: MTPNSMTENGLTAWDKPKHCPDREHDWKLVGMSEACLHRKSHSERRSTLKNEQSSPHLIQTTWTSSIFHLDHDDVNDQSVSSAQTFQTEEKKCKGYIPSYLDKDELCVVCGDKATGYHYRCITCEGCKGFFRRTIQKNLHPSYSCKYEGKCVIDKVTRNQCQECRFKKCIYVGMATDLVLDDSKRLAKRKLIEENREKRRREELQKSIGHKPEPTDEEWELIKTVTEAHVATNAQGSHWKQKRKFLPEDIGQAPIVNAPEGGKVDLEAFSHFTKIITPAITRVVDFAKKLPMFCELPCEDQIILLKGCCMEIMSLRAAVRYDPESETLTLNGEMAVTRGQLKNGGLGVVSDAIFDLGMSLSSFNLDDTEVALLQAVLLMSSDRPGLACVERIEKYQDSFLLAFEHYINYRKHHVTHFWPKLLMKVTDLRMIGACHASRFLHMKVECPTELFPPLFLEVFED
UniProt P03372, whole entry, looked up: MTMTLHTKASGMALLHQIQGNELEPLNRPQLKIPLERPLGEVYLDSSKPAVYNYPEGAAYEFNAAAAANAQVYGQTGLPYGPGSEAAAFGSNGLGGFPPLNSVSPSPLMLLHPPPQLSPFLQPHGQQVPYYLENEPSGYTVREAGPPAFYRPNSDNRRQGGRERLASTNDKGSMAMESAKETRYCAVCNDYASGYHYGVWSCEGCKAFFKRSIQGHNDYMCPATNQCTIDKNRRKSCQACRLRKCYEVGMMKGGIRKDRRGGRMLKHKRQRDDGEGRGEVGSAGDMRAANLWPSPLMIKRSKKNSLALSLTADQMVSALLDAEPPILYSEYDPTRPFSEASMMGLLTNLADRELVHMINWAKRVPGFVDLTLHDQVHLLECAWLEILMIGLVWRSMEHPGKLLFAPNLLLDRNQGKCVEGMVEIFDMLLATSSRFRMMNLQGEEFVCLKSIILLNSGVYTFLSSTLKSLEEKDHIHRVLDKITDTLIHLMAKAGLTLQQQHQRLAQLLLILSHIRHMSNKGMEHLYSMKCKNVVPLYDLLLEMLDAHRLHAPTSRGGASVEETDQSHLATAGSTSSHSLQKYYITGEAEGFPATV
UniProt Q92731, whole entry, looked up: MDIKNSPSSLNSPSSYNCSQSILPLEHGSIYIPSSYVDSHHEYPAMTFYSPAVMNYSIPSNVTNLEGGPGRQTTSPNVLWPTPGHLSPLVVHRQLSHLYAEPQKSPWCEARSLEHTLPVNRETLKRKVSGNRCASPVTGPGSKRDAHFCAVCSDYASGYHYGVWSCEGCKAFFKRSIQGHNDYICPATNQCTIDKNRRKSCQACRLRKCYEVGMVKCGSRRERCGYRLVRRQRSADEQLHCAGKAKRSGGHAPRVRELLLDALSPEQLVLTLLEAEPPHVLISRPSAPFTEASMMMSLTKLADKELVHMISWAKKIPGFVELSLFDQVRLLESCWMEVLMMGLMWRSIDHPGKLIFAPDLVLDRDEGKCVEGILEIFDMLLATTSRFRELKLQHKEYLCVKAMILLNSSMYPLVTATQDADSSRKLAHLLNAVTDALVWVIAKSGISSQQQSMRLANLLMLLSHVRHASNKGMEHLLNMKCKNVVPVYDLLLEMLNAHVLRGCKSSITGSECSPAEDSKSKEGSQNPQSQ
UniProt P20309, whole entry, looked up: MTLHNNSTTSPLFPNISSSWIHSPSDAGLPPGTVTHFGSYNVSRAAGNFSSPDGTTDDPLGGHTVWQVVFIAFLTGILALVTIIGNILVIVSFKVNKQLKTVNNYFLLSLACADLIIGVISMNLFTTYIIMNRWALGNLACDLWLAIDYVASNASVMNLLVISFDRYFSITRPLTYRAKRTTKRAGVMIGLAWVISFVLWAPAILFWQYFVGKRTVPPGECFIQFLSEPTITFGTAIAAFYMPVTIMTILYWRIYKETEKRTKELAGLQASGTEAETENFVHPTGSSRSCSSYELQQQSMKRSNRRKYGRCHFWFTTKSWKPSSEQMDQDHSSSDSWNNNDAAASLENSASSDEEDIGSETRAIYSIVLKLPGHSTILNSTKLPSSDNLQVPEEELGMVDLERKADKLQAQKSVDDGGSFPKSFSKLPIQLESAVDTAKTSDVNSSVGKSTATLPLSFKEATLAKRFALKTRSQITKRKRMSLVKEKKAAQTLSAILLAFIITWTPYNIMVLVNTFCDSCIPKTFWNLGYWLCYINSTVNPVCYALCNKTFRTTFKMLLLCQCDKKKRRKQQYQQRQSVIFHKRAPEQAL
UniProt P33535, whole entry, looked up: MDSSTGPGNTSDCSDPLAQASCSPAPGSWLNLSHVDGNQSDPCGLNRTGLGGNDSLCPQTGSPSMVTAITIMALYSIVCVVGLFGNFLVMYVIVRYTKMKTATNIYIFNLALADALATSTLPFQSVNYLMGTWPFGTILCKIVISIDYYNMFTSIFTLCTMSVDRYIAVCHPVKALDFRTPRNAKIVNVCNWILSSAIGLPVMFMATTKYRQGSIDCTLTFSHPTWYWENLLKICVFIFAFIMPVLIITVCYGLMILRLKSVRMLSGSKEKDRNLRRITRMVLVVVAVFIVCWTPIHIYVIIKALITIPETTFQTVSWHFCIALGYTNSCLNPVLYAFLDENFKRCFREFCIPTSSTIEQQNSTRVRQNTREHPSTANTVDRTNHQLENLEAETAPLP
UniProt P08254: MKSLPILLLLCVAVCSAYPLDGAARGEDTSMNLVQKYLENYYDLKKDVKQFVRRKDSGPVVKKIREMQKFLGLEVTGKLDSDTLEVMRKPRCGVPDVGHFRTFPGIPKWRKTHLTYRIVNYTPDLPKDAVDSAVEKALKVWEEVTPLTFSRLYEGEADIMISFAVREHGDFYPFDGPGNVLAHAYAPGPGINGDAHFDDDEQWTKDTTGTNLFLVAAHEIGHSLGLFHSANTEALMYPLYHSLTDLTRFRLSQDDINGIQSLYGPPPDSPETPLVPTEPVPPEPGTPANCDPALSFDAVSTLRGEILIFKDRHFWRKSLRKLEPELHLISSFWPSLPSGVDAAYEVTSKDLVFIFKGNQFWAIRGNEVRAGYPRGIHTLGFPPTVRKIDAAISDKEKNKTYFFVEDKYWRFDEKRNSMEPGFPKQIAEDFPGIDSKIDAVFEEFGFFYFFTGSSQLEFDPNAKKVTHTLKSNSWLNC
UniProt P62136, whole entry, looked up: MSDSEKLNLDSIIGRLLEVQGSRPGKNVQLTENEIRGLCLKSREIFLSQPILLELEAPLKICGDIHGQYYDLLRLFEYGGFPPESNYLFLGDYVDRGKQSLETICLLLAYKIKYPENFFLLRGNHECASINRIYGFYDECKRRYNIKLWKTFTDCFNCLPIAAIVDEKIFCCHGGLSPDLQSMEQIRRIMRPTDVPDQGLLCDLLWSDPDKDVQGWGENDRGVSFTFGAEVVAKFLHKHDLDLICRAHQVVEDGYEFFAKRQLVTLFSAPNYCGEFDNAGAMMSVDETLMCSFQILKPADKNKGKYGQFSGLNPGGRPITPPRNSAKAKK
UniProt P31424, whole entry, looked up: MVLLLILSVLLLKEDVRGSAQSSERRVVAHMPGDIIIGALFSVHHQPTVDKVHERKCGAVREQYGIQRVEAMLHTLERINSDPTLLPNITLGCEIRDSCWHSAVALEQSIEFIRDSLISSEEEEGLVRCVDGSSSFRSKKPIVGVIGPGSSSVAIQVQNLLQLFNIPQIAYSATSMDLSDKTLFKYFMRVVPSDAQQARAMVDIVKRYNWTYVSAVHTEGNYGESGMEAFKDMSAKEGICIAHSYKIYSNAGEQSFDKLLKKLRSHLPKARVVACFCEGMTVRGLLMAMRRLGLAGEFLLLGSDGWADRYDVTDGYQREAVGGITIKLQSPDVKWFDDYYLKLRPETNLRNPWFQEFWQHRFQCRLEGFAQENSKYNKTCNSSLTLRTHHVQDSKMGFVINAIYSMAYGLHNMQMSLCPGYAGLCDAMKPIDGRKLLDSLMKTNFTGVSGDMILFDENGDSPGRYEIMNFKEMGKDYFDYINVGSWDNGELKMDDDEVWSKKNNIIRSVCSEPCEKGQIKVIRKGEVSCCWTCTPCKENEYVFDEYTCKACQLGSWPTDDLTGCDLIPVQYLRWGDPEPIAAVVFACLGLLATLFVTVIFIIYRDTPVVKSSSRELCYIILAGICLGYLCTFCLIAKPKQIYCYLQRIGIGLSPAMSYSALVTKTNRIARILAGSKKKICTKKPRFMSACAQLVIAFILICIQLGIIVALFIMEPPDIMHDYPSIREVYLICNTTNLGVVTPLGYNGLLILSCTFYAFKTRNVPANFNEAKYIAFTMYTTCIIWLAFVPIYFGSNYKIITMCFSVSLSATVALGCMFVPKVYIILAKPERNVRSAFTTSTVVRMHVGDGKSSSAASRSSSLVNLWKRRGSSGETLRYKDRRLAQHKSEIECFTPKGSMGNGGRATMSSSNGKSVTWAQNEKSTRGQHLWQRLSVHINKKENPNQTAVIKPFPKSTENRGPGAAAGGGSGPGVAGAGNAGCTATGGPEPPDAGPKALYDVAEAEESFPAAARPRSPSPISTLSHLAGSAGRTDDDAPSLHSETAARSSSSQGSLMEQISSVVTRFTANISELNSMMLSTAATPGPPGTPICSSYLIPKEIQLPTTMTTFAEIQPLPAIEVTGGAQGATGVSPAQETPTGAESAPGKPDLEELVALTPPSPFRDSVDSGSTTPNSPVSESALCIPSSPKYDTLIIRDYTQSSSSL
UniProt Q12809: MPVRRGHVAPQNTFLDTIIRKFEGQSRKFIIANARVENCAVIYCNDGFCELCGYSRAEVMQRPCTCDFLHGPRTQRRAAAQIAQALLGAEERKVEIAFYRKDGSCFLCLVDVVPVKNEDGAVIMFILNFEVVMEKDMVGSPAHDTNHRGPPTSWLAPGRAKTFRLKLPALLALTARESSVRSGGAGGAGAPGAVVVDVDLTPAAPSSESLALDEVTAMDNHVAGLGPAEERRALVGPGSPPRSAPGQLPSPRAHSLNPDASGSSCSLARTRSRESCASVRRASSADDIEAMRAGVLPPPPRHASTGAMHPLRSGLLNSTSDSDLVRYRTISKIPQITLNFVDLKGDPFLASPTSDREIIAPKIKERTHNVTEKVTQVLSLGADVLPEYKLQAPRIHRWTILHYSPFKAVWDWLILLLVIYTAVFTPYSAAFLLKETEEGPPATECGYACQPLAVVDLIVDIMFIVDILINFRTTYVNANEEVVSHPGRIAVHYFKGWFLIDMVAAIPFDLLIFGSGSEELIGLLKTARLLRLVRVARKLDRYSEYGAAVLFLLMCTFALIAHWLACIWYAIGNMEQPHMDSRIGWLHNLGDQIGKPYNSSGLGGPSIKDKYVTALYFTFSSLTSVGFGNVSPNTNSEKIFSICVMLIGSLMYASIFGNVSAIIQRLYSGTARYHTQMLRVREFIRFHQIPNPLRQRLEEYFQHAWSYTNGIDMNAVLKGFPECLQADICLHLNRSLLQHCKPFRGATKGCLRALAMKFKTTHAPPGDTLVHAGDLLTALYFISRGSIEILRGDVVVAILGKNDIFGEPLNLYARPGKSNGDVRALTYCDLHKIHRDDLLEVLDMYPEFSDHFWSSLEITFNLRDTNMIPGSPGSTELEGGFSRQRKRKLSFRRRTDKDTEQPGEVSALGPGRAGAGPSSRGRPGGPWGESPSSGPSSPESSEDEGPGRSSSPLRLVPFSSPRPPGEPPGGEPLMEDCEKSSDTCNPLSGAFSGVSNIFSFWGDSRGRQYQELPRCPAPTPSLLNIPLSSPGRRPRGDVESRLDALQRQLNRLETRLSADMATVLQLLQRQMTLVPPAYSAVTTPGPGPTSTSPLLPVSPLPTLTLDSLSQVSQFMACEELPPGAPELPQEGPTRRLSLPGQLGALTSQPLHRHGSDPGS
UniProt P05979, whole entry, looked up: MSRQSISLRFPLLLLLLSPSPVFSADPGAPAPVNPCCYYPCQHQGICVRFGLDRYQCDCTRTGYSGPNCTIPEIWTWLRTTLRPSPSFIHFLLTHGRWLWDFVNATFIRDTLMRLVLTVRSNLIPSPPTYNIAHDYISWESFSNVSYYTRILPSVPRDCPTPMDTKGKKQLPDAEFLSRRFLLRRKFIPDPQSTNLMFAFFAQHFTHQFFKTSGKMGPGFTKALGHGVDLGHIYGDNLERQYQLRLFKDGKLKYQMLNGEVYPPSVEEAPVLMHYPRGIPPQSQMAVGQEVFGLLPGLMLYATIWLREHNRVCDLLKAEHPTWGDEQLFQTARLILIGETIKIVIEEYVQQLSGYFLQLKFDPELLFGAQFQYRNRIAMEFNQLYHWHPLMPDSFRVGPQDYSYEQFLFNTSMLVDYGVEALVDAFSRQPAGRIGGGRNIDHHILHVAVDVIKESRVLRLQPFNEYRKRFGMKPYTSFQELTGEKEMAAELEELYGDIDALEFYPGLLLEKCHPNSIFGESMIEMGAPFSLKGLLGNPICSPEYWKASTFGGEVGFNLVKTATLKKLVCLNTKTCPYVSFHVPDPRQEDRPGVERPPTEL

Tests used:
[1] = test system: guinea pig Muscarinic, Peripheral (Mperiperal) Receptor, Non-selective Binding, gene 100379235; assay: NVS_GPCR_gMPeripheral_NonSelective: NovaScreen (NVS) G Protein-Coupled Receptor Assay for guinea pig Muscarinic, Peripheral (Mperiperal) Receptor, Non-selective Binding (AID 2283250)
Procedure, shortened: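 Screened in duplicate at 25 uM, hits retested in concentration series to 50 uM max, using bladder membrane radioligand displacement from guinea pig. Filtration and scintillation counting 1 h post-dose, fitted relative to DMSO.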

[2] = test system: guinea pig Dopamine Transporter (DAT), gene 100714898; assay: NVS_TR_gDAT: NovaScreen (NVS) Transporter Assay for guinea pig Dopamine Transporter (DAT) (AID 2283369);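 further: active compounds lower bound radioligand signal relative to DMSO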
Procedure, shortened: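 Guinea pig striatal membranes; radioligand displacement measured by filter-based scintillation counting 2 h after dosing. Initial duplicate screen at 25 uM, then concentration-response up to 50 uM for hits; loss of signal versus DMSO baseline.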

[3] = ATG_M_61_XSP1: Attagene TRANS-FACTORIAL Multi-Species (XSP1) HepG2 Assay for M61 Transcription Factor (Internal Marker) (AID 2283797)
Procedure, shortened: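 Background-control readout: reporter transcripts measured by RT-PCR and capillary electrophoresis 24 h after dosing transiently transfected HepG2 multi-reporter cells, with 3 nM 6-alpha-fluorotestosterone present. Fitted in the positive direction relative to DMSO.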

[4] = biological target: human Thyroid hormone Receptor beta (TRb), THRB (gene 7068) (UniProt P10828); assay: ATG_hTRb_XSP1: Attagene TRANS-FACTORIAL Multi-Species (XSP1) HepG2 Assay for human Thyroid hormone Receptor beta (TRb) (AID 2283808)
Procedure, shortened: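 Readout is reporter mRNA induction measured by RT-PCR, fluorescent labelling and capillary electrophoresis, fitted upward relative to DMSO. Transiently transfected human HepG2 cells expressing NR-Gal4 chimeras were dosed for 24 h, medium containing 3 nM 6-alpha-fluorotestosterone.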

[5] = ATG_M_06_XSP2: Attagene TRANS-FACTORIAL Multi-Species (XSP2) HepG2 Assay for M06 Transcription Factor (Internal Marker) (AID 2283811)
Procedure, shortened: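 Readout: fluorescent reporter-mRNA peaks by capillary electrophoresis after RT-PCR and HpaI digest, scored upward relative to DMSO. Transfected HepG2, 24 h chemical exposure, with 3 nM 6-alpha-fluorotestosterone and 1.5 nM norgestrel added.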

[6] = CCTE_Mundy_HCI_Cortical_NOG_NeuronCount: CCTE's Neurite Outgrowth Assay in rat cortical cells for Neuron Count, Mundy Lab (AID 2284236);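 further: neurons counted by imaging betaIII-tubulin and Hoechst stained cortical cells; cells exposed to compound for about 48 hours before fixation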
Procedure, shortened: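 Read-out: neuron number by high-content imaging of betaIII-tubulin (Alexa Fluor-488) and Hoechst-labelled rat primary cortical cells.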

[7] = CCTE_Mundy_HCI_Cortical_Synap_Neur_Matur_NeuronCount: CCTE's Synaptogenesis and Neurite Maturation Assay in rat cortical cells for Neuron Count, Mundy Lab (AID 2284242);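 further: hits reduce neuron count versus DMSO baseline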
Procedure, shortened: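 Neuron counts come from automated high-content imaging of Hoechst nuclei and MAP2/synaptophysin immunostaining at DIV 12, with loss of signal judged against DMSO. Cultures of rat cortical cells had glial growth arrested by AraC at DIV 5; chemical exposure began DIV 7.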

[8] = IUF_NPC4_neurite_area_120hr: Leibniz Research Institute for Environmental Medicine (IUF) 120-hour Neuronal Morphology Assay for Neurite Area (NPC4) (AID 2284305)
Procedure, shortened: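 hNPC spheres on PDL/laminin, N2 medium, 37C/5% CO2; dosed day 0, half-medium refresh day 3; fixed 120 h; TUBB3/Hoechst ICC, high-content imaging; neurite area = mean pixels per neuron (nuclei excluded); DMSO baseline, max 0.1%.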

[9] = biological target: Estrogen receptor (Homo sapiens) + Estrogen receptor beta (Homo sapiens) (UniProt P03372+Q92731); assay: OT_ER_ERaERb_0480: Odyssey Thera (OT) 8-hour HEK293T Protein-Complementation Assay for Estrogen Receptor-alpha/-beta Heterodimer (AID 2283352)
Procedure, shortened: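 HEK293T cells expressing ER-alpha/ER-beta LBD fusions to complementary reporter fragments were dosed with compound for 8 hours. Heterodimer formation was read as increased nuclear (agonist) or nuclear plus cytoplasmic (antagonist) mean fluorescence intensity versus DMSO vehicle.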

[10] = biological target: Muscarinic acetylcholine receptor M3 (Homo sapiens) (UniProt P20309); assay: NVS_GPCR_hM3: NovaScreen (NVS) G Protein-Coupled Receptor Assay for human Muscarinic, M3 Receptor (AID 2283272)
Procedure, shortened: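 Radioligand displacement binding on human M3 receptor in CHO-derived membranes, 1 h incubation, filter-based scintillation counting. Primary screen in duplicate at 25 uM; actives followed up in concentration series; loss of signal versus DMSO.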

[11] = biological target: rat Opioid Receptor, Non-selective Binding, Oprm1 (gene 25601) (UniProt P33535); assay: NVS_GPCR_rOpiate_NonSelective: NovaScreen (NVS) G Protein-Coupled Receptor Assay for rat Opioid Receptor, Non-selective Binding (AID 2283318)
Procedure, shortened: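 Filter-based radioligand displacement using rat forebrain membrane preparations, measured 1.5 h post-dosing. Single-concentration duplicate screen at 25 uM, follow-up in concentration series; activity taken as signal loss relative to DMSO.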

[12] = biological target: human Matrix Metalloproteinase-3 (MMP3), MMP3 (gene 4314) (UniProt P08254); assay: NVS_ENZ_hMMP3: NovaScreen (NVS) Enzymatic Assay for human Matrix Metalloproteinase-3 (MMP3) (AID 2283185)
Procedure, shortened: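 Fluorescent substrate turnover by recombinant MMP3 read after 1 h, signal loss scored against DMSO. Compounds first run in duplicate at 25 uM single dose, then actives confirmed by concentration series.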

[13] = biological target: Serine/threonine-protein phosphatase PP1-alpha catalytic subunit (Homo sapiens) (UniProt P62136); assay: NVS_ENZ_hPPP1CA: NovaScreen (NVS) Enzymatic Assay for human Protein Phosphatase 1 Aatalytic subunit Alpha (PPP1CA) (AID 2283200)
Procedure, shortened: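 Chemicals were first screened in duplicate at 25 uM, and those passing threshold (e.g. 30% inhibition) were run as concentration series to 50 uM. Cell-free recombinant protein, 1.33 h read, fluorescent substrate/product mobility-shift detection, normalised to DMSO.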

[14] = biological target: human Caspase 4 (CASP4), CASP4 (gene 837) (UniProt P49662); assay: NVS_ENZ_hCASP4: NovaScreen (NVS) Enzymatic Assay for human Caspase 4 (CASP4) (AID 2283143)
Procedure, shortened: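 Compounds were first tested in duplicate at 25 uM, and hits were titrated singly to a 50 uM maximum. Recombinant protease from E. coli was read by fluorescence 2 h post-dose, and activity loss was fitted against the DMSO baseline.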

[15] = biological target: human MAP Kinase-Activated Protein Kinase 2 (MAPKAPK2), MAPKAPK2 (gene 9261) (UniProt P49137); assay: NVS_ENZ_hMAPKAPK2: NovaScreen (NVS) Enzymatic Assay for human MAP Kinase-Activated Protein Kinase 2 (MAPKAPK2) (AID 2283178)
Procedure, shortened: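 Chemicals screened in duplicate at 25 uM, then to 50 uM top concentration in concentration-response, against recombinant human MAPKAPK2; substrate conversion read 1 hr post-dosing by fluorescence after electrophoretic mobility-shift separation, loss-of-signal relative to DMSO.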

[16] = biological target: rat Neurokinin-1 Receptor (NK1), Tacr1 (gene 24807) (UniProt P14600); assay: NVS_GPCR_rNK1: NovaScreen (NVS) G Protein-Coupled Receptor Assay for rat Neurokinin-1 Receptor (NK1) (AID 2283309)
Procedure, shortened: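 Competitive radioligand binding to NK1 in rat submaxillary membranes, 1 h incubation, filtration and scintillation read-out. Compounds first screened at 25 uM in duplicate, then concentration-response for actives; signal loss relative to DMSO.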

[17] = biological target: rat Glutamate Metabotropic Receptor 5 (MGluR5), Grm5 (gene 24418) (UniProt P31424); assay: NVS_GPCR_rmMGluR5: NovaScreen (NVS) G Protein-Coupled Receptor Assay for rat Glutamate Metabotropic Receptor 5 (MGluR5) (AID 2283307)
Procedure, shortened: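 Compounds first screened in duplicate at 25 uM, then in concentration series up to 50 uM if over threshold. Radioligand displacement on rat whole-brain membranes, filtration and scintillation counting after 1.5 h; binding loss relative to DMSO.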

[18] = biological target: Sodium channel protein type 1 subunit alpha (Rattus norvegicus) (UniProt P04774); assay: NVS_IC_rNaCh_site2: NovaScreen (NVS) Ion Channel Assay for rat Sodium Channel, Site 2 (NaCh) (AID 2283322);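 further: hit means loss of radioligand binding signal relative to DMSO so AC50 marks displacement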
Procedure, shortened: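 Initial duplicate single-point testing at 25 uM, followed by concentration-response runs for actives. Binding of radioligand to rat forebrain membranes quantified after 1 h via filter-based radiodetection.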

[19] = biological target: Voltage-gated inwardly rectifying potassium channel KCNH2 (Homo sapiens) (UniProt Q12809); assay: NVS_IC_hKhERGCh: NovaScreen (NVS) Ion Channel Assay for human Potassium Channel ERG (KhERGCh) (AID 2283333)
Procedure, shortened: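 Membranes from CHO cells expressing human ERG; displacement of radioligand measured by filtration and scintillation after 0.75 h. Single-concentration duplicate screen at 25 uM, then concentration-response for actives; DMSO baseline.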

[20] = biological target: sheep Cyclooxygenase-1 (Cox1), PTGS1 (gene 443551) (UniProt P05979); assay: NVS_ENZ_oCOX1: NovaScreen (NVS) Enzymatic Assay for sheep Cyclooxygenase-1 (Cox1) (AID 2283239);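 further: actives reduce cyclooxygenase activity so potencies are for inhibitors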
Procedure, shortened: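 Cell-free colorimetric assay of enzyme activity in a native extract of ovine seminal vesicles. Absorbance was read 0.66 hour after compound addition. Loss of signal relative to the DMSO negative control was scored, with actives from the 25 uM duplicate primary screen retested in concentration series.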

CCCCCCCCN(C)C
outcome [1]: inactive

CC(COCC(C)OC(=O)c1ccccc1)OC(=O)c1ccccc1 (centres undefined)
outcome [2]: inactive

CCN1CN(CC)CN(CC)C1
AC50 [9]: inconclusive: 48.5 µM

CCN(C(=O)c1cc(C)cc(OC[C@H](C)Nc2ccncc2)c1)C(C)C
AC50 [10]: active: 16.9 µM | outcome [11]: inactive

CC(C)(O)c1coc(S(=O)(=O)NC(=O)Nc2c3c(cc4c2CCC4)CCC3)c1
AC50 [12]: inconclusive: 25 µM

C=CCc1ccc(OC)c(OC)c1
AC50 [13]: inconclusive: 25 µM

Nc1ccc2c(c1)C(=O)c1ccccc1C2=O
AC50 [14]: active: 18.9 µM | AC50 [15]: active: 16.5 µM | AC50 [16]: inconclusive: 10.5 µM

CC(=O)S[C@H](C(=O)N[C@H]1Cc2ccccc2[C@H]2CCC[C@@H](C(=O)O)N2C1=O)C(C)C
AC50 [17]: inconclusive: 25 µM

CN1CCCC1=O
outcome [9]: inactive

CCCCOCCOCCO
AC50 [15]: inconclusive: 46.1 µM

CCCCC(CC)COC(=O)c1ccc(O)cc1 (centres undefined)
outcome [3]: inactive | outcome [4]: inactive | AC50 [5]: inconclusive: 33.4 µM

CC(O)CC(C)(C)O (centres undefined)
outcome [18]: inactive

O=C1OC(=O)C2C3C=CC(C3)C12 (centres undefined)
AC50 [17]: inconclusive: 39.7 µM

CC(C)COC(=O)CCCCC(=O)OCC(C)C
AC50 [19]: inconclusive: 0.413 µM

CC(=O)CCc1ccc(O)cc1
AC50 [20]: inconclusive: 7.21 µM

CN(C)CCC(c1ccc(Cl)cc1)c1ccccn1 (centres undefined)
AC50 [6]: inconclusive: 15 µM | AC50 [7]: inconclusive: 0.0003 µM | outcome [8]: inactive

CCCCCCCCCC
AC50 [14]: inconclusive: 4.04 µM | AC50 [13]: inconclusive: 25 µM | AC50 [10]: inconclusive: 25 µM | AC50 [16]: inconclusive: 0.0757 µM | AC50 [11]: inconclusive: 25 µM | outcome [18]: inactive | AC50 [19]: inconclusive: 25 µM | outcome [2]: inactive

COCCOCCOCCOC
AC50 [12]: inconclusive: 25 µM | outcome [20]: inactive
